Source: patent publication US20260125454A1
No constants are given. Whether binding was seen depends on the method and setting. Some binding calls cover weakened binding; strength is not graded here.

Biological target: T1, rat α-CGRP (rat) (UniProt P01256)
T1 sequence (peptide, looked up): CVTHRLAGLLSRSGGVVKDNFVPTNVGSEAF
Assay: ELISA, hybridoma supernatant

B1: 3C1 (antibody, V domains shown)
VH: EVQLQQSGPELVKPGASMKISCKASGYSFTGYTMNWVKQSHGNNLEWIGLINPYIGNTHYNQKFKDKATFTVDRSSSTAYMALLSLTSEDSAVYYCARELDSGFDYWGQGTTLTVSS
VL: DVLMTQTPLSLPVSLGDQASLSCRSSQNIVHSNGDTYLEWYLQKPGQSPKLLIYKVSNRFSGVPDRFSGSGSGTDFTLKISRVEAEDLGVYYCYQGSHVPWTFGGGTKLEIK
For B1, the binding was “binds”.

B2: 3E5 (antibody, V domains shown)
VH: EVQLQQSGPELVKPGASVKISCKTSGYTFTDYNMHWVKQSHGKSLEWIGYISPYNGGTAYNQKFKFKSTLTVDTSSSTAYMELRSLTSEDSAVYYCAREGLGGYWGQGTTLTVSS
VL: DIVLTQSPASLAVSLGQRATISCKASQNIDYDGYTYLNWYQQKPGQPPKVLIYSIFNLESGIPARFSGSGSGTDFTLNIHPVEEEDAATYYCQQSNEVPYTFGGGTKLEIK
In the case of B2, the binding is reported as “binds”.
